# Laboratory results: PubChem BioAssay AID504594 (Broad Institute, 2011)
# The whole screen tested about 2,000 compounds, of which fewer than 10 were called active.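 How the source made its calls: active means growth inhibition of at least 75% in every replicate, which also brings the mean inhibition to 75% or more; inconclusive means mean inhibition 75% or more but some replicate under 75%; inactive means the rest.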 The list shows a part of the results.
# Assay: growth inhibition of PfHsp90-dependent yeast, primary screen, antimalarial PfHsp90 inhibitor project, S. cerevisiae, BacTiter-Glo luminescence (AID 504594);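 further: 0% = DMSO neutral control wells and 100% = 20 µM radicicol control wells; higher value means stronger growth inhibition because the sign is flipped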
# Conditions: S. cerevisiae expressing PfHsp90, BacTiter-Glo growth, 48 h; at 9.4 µM; stronger effect = higher value
row,Compound,growth inhibition
1,CCOc1ccccc1OCCOc1ccc(F)cc1,inactive: -4.49%
2,O=C1C(Cc2c[nH]c3ccccc23)NC(=S)N1Cc1ccccc1 (stereo not given),inactive: -3.78%
3,O=C1ON=C(c2ccc(Cl)cc2)/C1=C/c1ccc(O)cc1,inactive: -12.5%
4,Cc1ccc(Cl)c(Nc2ccccc2C(=O)O)c1Cl,inactive: -7.61%
5,CC(C(=O)O)c1ccc(N2Cc3ccccc3C2=O)cc1 (stereo not given),inactive: -3.41%
6,CCn1nc(C(=O)O)c(=O)c2cc3c(cc21)OCO3,inactive: 4.33%
7,COc1cccc(=O)c2c(C)n(CC(=O)c3ccccc3)c(C)c12,inactive: 0.258%
8,Fc1ccc(-n2cc(CNCCc3ccccn3)c(-c3ccccc3Cl)n2)cc1,inactive: 9.13%
9,CC(=O)Nc1ccc(S(=O)(=O)c2ccc(N)cc2)cc1,inactive: 6.28%
10,CCCN1CCC(NC(=O)Nc2ccc(Br)cc2)CC1,inactive: -1.16%
11,CCS(=O)(=O)Nc1cc(OC)c(OC)cc1Cc1nccc2cc(OC)c(OC)cc12,inactive: 1.03%
12,CN(C)c1ccc(CNCCC(Cc2ccccc2)c2ccco2)cc1 (stereo not given),inactive: -10.9%
13,COc1cc(C2CC(=O)NC3=C2C(=O)CC(C)(C)C3)ccc1O (stereo not given),inactive: -7.05%
14,N#C/C(=C/c1ccccc1)C(=O)NCc1ccccc1,inactive: -5.1%
15,O=C(CCC1CCCN(C(=O)c2ccsc2)C1)NCc1ccc(F)c(F)c1 (stereo not given),inactive: -8.05%
16,Cc1cccc(C(=O)c2cccc(C)c2)c1,inactive: 0.336%
17,O=C(O)CCCc1ccccc1,inactive: 9.2%
18,Cc1cnc(NC(=O)C2=C(O)c3ccccc3S(=O)(=O)N2C)s1,inactive: -6.36%
19,COc1ccc(/C=C\c2nc(=O)c3ccccc3o2)cc1,inactive: 6.65%
20,CC1(C)O[C@@H]2C[C@H]3[C@@H]4CCC5=CC(=O)C=C[C@]5(C)[C@@]4(F)[C@@H](O)C[C@]3(C)[C@]2(C(=O)CO)O1,inactive: 4.76%

row,Compound,growth inhibition
1,CCCOc1ccc(-c2cc(C(=O)NCC3CCCO3)c3ccccc3n2)cc1 (stereo not given),inactive: 18%
2,O=C(NCCc1c[nH]c2ccccc12)c1cccnc1,inactive: 7.04%
3,CC(=O)OCC(OC(C)=O)C(OC(C)=O)C(OC(C)=O)C(=O)Nc1cccc(C)c1 (stereo not given),inactive: -0.0548%
4,CC1CC(OC(=O)C(O)c2ccccc2)CC(C)(C)N1C (stereo not given),inactive: 6.86%
5,Cc1nnc(NS(=O)(=O)c2ccc(N)cc2)s1,inactive: 0.395%
6,CCN1CCN(c2cc3c(cc2F)c(=O)c(C(=O)O)cn3C2CC2)CC1,inactive: -0.915%
7,CC(C)N1C(=O)/C(=C\c2nc3ccccc3c(=O)[nH]2)c2ccccc21,inactive: 40.8%
8,O=C(Cc1ccccc1)NCC(=O)OCC(=O)c1ccccc1Cl,inactive: -1.41%
9,Cc1cnc(C(=O)N2CCCC(C(=O)c3ccc(Cl)cc3C)C2)cn1 (stereo not given),inactive: 0.89%
10,CCOc1ccc(C(=O)Nc2ccc(N3CCN(C(C)=O)CC3)cc2)cc1[N+](=O)[O-],inactive: 1.08%
11,Cn1c(Oc2ccc3c(c2)OCO3)nc2c1c(=O)n(Cc1ccccc1)c(=O)n2C,inactive: 5.1%
12,Fc1cccc(Cc2noc(CN3CCN(c4cnccn4)CC3)n2)c1,inactive: -2%
13,COc1ccc2c(=O)c(-c3cnn(-c4ccccc4)c3)c(C)oc2c1,inactive: 5.41%
14,CC(C)(C)NC[C@H](O)COc1nsnc1N1CCOCC1,inactive: -4.62%
15,C[C@]12CCC(=O)C=C1CC[C@@H]1[C@@H]2[C@@H](O)C[C@@]2(C)[C@H]1CC[C@]2(O)C(=O)COC(=O)CCC(=O)O,inactive: 3.79%
16,COc1ccc(CC(=O)NCC2(c3ccc(OC)c(OC)c3)CCOCC2)cc1,inactive: 0.87%
17,O=C(O)[C@H](Cc1ccccc1)NC(=O)N1CCC(Cc2ccccc2)CC1,inactive: -1.3%
18,COc1cc(COc2ccc3c(C)c(Cc4ccccc4)c(=O)oc3c2)cc(OC)c1OC,inactive: 3.7%
19,CC(C)(C)N(Cc1ccccc1)C(=O)c1ccc(Br)o1,inactive: 15.4%
20,CC(COc1ccccc1)N(CCCl)Cc1ccccc1 (stereo not given),inactive: -3.68%

# Quoted at random: 2 entries already listed.
row,Compound,growth inhibition
19,COc1ccc(/C=C\c2nc(=O)c3ccccc3o2)cc1,inactive: 6.65%
13,COc1cc(C2CC(=O)NC3=C2C(=O)CC(C)(C)C3)ccc1O (stereo not given),inactive: -7.05%

# Next entries follow:

row,Compound,growth inhibition
1,CCOC(=O)C(Cc1cc(C(C)=O)ccc1OC(C)C)C(=O)OCC,inactive: 8.38%
2,COc1ccc(CN(CCN(C)C)c2ccccn2)cc1,inactive: 1%
3,CCCNC(C)C(=O)Nc1ccccc1C (stereo not given),inactive: 6.27%
4,CCCCC[C@H](O)/C=C/[C@@H]1[C@@H](C/C=C\CCCC(=O)O)[C@@H](O)C[C@H]1O,inactive: -8.27%
5,CN(CCO)CC(O)Cn1cnc2c1c(=O)n(C)c(=O)n2C (stereo not given) (tested in a mixture with another compound),inactive: -7.75%
6,Cc1nc(C(=O)Nc2ccccc2Cl)cc2c1[nH]c1ccccc12,inactive: 6.77%
7,COc1ccc2c(c1OC)C(=O)NC(C)=C(C(=O)OC(C)(C)C)C2O (stereo not given),inactive: -1.33%
8,O=C1NC2(Nc3ccccc31)C(=O)Nc1ccc(Br)cc12 (stereo not given),inactive: 6.7%
9,COc1ccc(CNC(=O)c2c(O)c3cccc4c3n(c2=O)CCC4)cc1,inactive: 8.31%
10,CC(=O)NC(Cc1ccccc1)C(=O)OCC(=O)c1ccccc1 (stereo not given),inactive: 0.5%
11,Cc1ccc2occ(C(=O)c3ccco3)c(=O)c2c1,inactive: 0.389%
12,O=C(NC(CO)Cc1ccc([N+](=O)[O-])cc1)C(Cl)Cl (stereo not given),inactive: -5.86%
13,COc1ccc(C(=O)/C=C/c2ccc(OC(=O)c3cc(OC)c(OC)c(OC)c3)cc2)cc1,inactive: 3.44%
14,COc1cccc(C2CC(=O)C3=C(C2)Nc2ccccc2N(C(=O)CCC(=O)O)C3c2ccc(F)cc2)c1 (stereo not given),inactive: 3.39%
15,CC(=O)NC(NC(=S)N1CCCCCC1)C(Cl)(Cl)Cl (stereo not given),inactive: -2.52%
16,COc1ccc(-c2nc(C)c(C(C)=O)n2O)cc1OC,inactive: -1.05%
17,COc1ccc(N2C(=O)C3CCCN3C2=O)cc1 (stereo not given),inactive: -8.92%
18,COc1cc(=O)n(C)c2ccccc12,inactive: -35%
19,Cc1cc(C(=O)Nc2ccccc2C(=O)N2CCCCC2)ccc1[N+](=O)[O-],inactive: 2.1%
20,CN(Cc1ccccc1)CC(O)COc1ccc(CNCc2cccnc2)cc1 (stereo not given),inactive: 7.57%
